# In patent US20210401809A1, “PHARMACEUTICAL COMPOUNDS” (Sareum Limited, priority 2016, published 2021):
# Some entries share one result that the patent states for a list of compounds.
# Test system: phospho-TYK2, phospho-STATs 1/3/5, Bcl-2 and PARP in CCRF-HSB-2 cells
# Test: Western blot in CCRF-HSB-2 cell line
# Type: cell-based
# Conditions: 48 h, FIG. 3; for phosphorylated signals (TYK2, STATs 1/3/5): no IFNα
compound,measurement,value
"NC(=O)c1nc(-c2c(Cl)cccc2Cl)oc1Nc1ccc(C(=O)N2CCOCC2)cc1 [Compound 29, 2-(2,6-dichloro-phenyl)-5-[4-(morpholine-4-carbonyl)-phenylamino]-oxazole-4-carboxylic acid amide]",cleaved Parp,induction of cleaved Parp
same,levels of the anti-apoptotic protein BCL-2,"reduction in levels of the anti-apoptotic protein, BCL-2"
same,"phosphorylated signals (TYK2, STATs 1/3/5)",dose responsive reduction in the phosporylated signals
"NC(=O)c1nc(-c2c(F)cccc2Cl)oc1Nc1ccc(C(=O)N2CCOCC2)cc1 [Compound 25, 2-(2-chloro-6-fluoro-phenyl)-5-[4-(morpholine-4-carbonyl)-phenylamino]-oxazole-4-carboxylic acid amide]",cleaved Parp,induction of cleaved Parp
same,levels of the anti-apoptotic protein BCL-2,"reduction in levels of the anti-apoptotic protein, BCL-2"
same,"phosphorylated signals (TYK2, STATs 1/3/5)",dose responsive reduction in the phosporylated signals
